Measurements reported in PubChem BioAssay AID1224828 (NIAID, 2016).
Screen: 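Knock-downs that increase or decrease LPS-induced p65 nuclear translocation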 (primary screen). System: mouse RAW264.7 G9 macrophage reporter cells (GFP-p65, Tnf promoter-mCherry). Reagents: siRNA pool against mouse genes, 100 nM. Time to read-out: 2 days siRNA transfection, then 40 min LPS before fixation. Challenge: LPS (Salmonella minnesota R595) at 10 ng/ml. Read-out: 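Microscopy ratio of nuclear to perinuclear-ring GFP-p65 signal, scaled to the plate median; gene score is the average of two replicate robust z-scores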. Direction: p65 translocation robust z-score: higher = more nuclear NF-kappaB p65 after LPS than the plate median; nuclear/cytoplasmic p65 ratio: higher = more nuclear NF-kappaB p65. Active means: 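Called active when z exceeds 3.3 or falls under -1.56 (median of Tlr4 controls), giving activity score of at least 50; no calls for control wells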. Meaning of the calls: active = hit (p65 shift raised or lowered); inactive = no clear change.
In all, the deposit lists about 17,000 reagents; below is a random part of them. Of all reagents, 762 (4.5%) were called active. 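Active calls include both raised and lowered p65 entry, mostly lowered; wells with fewer than 50 cells lack a z-score.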 The raw values are shown without normalisation. Entries without a mark were called inactive.

The first 3 records, ahead of the listing:
gene knocked down,p65 translocation robust z-score,"nuclear/cytoplasmic p65 ratio, rep 1","nuclear/cytoplasmic p65 ratio, rep 2",low cell count flag
Il17re,,1.24,1.39,fewer than 50 cells per well; well left out of scoring
Shc4,,1.03,1.12,fewer than 50 cells per well; well left out of scoring
Mb21d2,-0.81,1.29,1.42,enough cells to score

Results, repeating the preview:
gene knocked down,p65 translocation robust z-score,"nuclear/cytoplasmic p65 ratio, rep 1","nuclear/cytoplasmic p65 ratio, rep 2",low cell count flag
Il17re,,1.24,1.39,fewer than 50 cells per well; well left out of scoring
Shc4,,1.03,1.12,fewer than 50 cells per well; well left out of scoring
Mb21d2,-0.81,1.29,1.42,enough cells to score
Tmem41a,1.9,1.52,1.81,enough cells to score
Bend5,,1.39,1.21,fewer than 50 cells per well; well left out of scoring
Tgm1,-0.23,1.46,1.51,enough cells to score
Lefty1,0.06,1.55,1.51,enough cells to score
Rerg,0.18,1.41,1.26,enough cells to score
Erlin1,3.2,2.07,1.8,enough cells to score
Tbc1d5,,1.45,1.14,fewer than 50 cells per well; well left out of scoring
Retnlb,1.34,1.62,1.35,enough cells to score
Or8g20,1.58,1.65,1.46,enough cells to score
Npc2,0.8,1.6,1.48,enough cells to score
Or10u3,,1.27,1.17,fewer than 50 cells per well; well left out of scoring
Arid3b,-0.3,1.61,1.54,enough cells to score
Zfp449,0.79,1.55,1.64,enough cells to score
Ssna1,,1.46,1.49,fewer than 50 cells per well; well left out of scoring
Trip12,-0.47,1.31,1.33,enough cells to score
Mri1,1.98,1.3,1.73,enough cells to score
Hoxd11,1.23,1.56,1.57,enough cells to score
Olfr899,-0.58,1.33,1.23,enough cells to score
Rab11fip4,-0.15,1.42,1.51,enough cells to score
Plcb3,0.49,1.53,1.5,enough cells to score
Cnksr2,-0.01,1.61,1.76,enough cells to score
